{"source": "paper PMC1687153", "binders": {"B1": {"name": "SNF (endogenous) (protein, UniProt P43332 1-216)", "chain": "MEMLPNQTIYINNLNEKIKKEELKKSLYAIFSQFGQILDIVALKTLKMRGQAFVIFKEIGSASNALRTMQGFPFYDKPMQIAYSKSDSDIVAKIKGTFKERPKKVKPPKPAPGTDEKKDKKKKPSSAENSNPNAQTEQPPNQILFLTNLPEETNEMMLSMLFNQFPGFKEVRLVPNRHDIAFVEFTTELQSNAAKEALQGFKITPTHAMKITFAKK"}}, "key": {"[1]": {"target": "T1, U2A′ (endogenous) (D. melanogaster (endogenous in embryos)) (UniProt Q9V4Q8)", "T1 sequence": "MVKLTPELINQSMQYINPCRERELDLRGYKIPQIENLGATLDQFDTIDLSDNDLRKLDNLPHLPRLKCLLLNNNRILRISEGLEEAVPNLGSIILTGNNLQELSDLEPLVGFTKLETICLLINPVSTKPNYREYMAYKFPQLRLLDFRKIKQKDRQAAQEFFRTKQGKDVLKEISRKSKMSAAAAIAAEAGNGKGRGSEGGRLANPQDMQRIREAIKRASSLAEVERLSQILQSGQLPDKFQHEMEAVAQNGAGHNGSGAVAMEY", "assay": "co-IP; U2A′ and SPF45 immunoprecipitations from extracts (lysates) of wild-type and spf45^J23 mutant embryos, Western blots"}, "[2]": {"target": "T2, GST::U2A′ fusion protein (D. melanogaster) (UniProt Q9V4Q8)", "T2 sequence": "T1 sequence", "assay": "pull-down; GST or GST-tagged protein on glutathione beads incubated overnight at 4 °C with 2.5 mg extract of 3- to 18-h-old embryos; Western blots with antibodies against SPF45 or SNF; only the target purified"}, "[3]": {"target": "T2, GST::U2A′ fusion protein (D. melanogaster)", "assay": "condition: only extracts pretreated with RNase A and RNase T1; pull-down; as the GST pull-down, but extracts pretreated with RNase A and RNase T1; only the target purified"}}, "note": "No constants are given. Whether binding was seen depends on the method and setting. Binding seen in cells or lysates may run through a third protein. Some results given as binding are weak or reduced against the parent protein; the word gives no strength. For part of these data: Tags and fused reporters may be left off the sequences shown.", "data": [{"binder": "B1", "values": [{"measurement": "binding", "setting": "[1]", "result": "binds"}, {"measurement": "binding", "setting": "[2]", "result": "binds"}, {"measurement": "binding", "setting": "[3]", "result": "no binding"}]}]}
